Experimental findings from the supplement of paper PMC6411743 are described below.

The chains behind the UniProt entries cited, without tags or fusion partners. Where a name states a change or a piece, a line headed by the entry shows the natural chain unless it says otherwise.
UniProt Q9NUV9: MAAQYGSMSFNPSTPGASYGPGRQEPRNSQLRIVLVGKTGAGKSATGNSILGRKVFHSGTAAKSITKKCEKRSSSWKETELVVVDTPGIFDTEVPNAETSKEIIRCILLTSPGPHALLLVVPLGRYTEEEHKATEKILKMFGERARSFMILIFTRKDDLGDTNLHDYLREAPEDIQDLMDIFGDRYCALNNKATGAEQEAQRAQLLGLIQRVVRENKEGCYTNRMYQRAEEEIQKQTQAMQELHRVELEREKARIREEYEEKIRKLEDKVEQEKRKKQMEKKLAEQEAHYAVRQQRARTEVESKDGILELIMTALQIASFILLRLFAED
UniProt Q9NPI6: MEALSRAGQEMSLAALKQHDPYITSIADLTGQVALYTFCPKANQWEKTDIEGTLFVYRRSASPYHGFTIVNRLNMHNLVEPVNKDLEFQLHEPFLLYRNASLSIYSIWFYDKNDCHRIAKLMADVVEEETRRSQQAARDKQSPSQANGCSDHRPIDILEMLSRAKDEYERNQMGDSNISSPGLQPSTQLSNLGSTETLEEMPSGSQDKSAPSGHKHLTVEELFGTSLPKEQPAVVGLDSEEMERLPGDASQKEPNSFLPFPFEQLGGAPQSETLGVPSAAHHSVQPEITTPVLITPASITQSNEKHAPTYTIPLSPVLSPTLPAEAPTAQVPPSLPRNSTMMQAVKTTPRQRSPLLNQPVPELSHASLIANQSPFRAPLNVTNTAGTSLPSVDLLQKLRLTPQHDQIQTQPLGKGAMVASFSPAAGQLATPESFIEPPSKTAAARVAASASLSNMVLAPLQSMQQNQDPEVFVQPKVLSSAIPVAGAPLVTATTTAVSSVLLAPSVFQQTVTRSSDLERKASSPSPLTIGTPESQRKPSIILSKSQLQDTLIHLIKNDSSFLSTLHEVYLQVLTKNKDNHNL
UniProt Q9NZI7: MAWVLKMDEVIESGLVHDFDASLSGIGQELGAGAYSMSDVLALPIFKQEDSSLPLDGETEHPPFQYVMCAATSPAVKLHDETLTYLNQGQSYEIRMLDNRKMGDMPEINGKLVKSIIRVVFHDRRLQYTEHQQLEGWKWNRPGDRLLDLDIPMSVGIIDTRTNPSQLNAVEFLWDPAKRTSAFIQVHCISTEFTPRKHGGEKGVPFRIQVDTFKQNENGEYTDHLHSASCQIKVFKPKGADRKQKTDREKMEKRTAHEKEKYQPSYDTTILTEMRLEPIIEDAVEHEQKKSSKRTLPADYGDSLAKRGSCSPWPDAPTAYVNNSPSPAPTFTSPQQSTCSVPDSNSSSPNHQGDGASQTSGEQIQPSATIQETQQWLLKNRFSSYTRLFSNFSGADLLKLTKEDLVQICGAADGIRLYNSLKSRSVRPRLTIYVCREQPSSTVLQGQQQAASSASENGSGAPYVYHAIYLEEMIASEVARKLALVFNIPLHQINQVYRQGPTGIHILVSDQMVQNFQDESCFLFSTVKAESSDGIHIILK
UniProt Q9NVS9: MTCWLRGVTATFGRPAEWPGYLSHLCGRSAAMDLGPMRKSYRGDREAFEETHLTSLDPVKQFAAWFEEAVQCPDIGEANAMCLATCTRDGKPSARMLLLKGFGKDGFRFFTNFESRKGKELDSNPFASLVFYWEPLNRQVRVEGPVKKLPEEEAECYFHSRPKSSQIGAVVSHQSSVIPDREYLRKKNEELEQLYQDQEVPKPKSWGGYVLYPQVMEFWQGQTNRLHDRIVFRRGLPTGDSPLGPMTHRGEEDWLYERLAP
UniProt Q9NVE7: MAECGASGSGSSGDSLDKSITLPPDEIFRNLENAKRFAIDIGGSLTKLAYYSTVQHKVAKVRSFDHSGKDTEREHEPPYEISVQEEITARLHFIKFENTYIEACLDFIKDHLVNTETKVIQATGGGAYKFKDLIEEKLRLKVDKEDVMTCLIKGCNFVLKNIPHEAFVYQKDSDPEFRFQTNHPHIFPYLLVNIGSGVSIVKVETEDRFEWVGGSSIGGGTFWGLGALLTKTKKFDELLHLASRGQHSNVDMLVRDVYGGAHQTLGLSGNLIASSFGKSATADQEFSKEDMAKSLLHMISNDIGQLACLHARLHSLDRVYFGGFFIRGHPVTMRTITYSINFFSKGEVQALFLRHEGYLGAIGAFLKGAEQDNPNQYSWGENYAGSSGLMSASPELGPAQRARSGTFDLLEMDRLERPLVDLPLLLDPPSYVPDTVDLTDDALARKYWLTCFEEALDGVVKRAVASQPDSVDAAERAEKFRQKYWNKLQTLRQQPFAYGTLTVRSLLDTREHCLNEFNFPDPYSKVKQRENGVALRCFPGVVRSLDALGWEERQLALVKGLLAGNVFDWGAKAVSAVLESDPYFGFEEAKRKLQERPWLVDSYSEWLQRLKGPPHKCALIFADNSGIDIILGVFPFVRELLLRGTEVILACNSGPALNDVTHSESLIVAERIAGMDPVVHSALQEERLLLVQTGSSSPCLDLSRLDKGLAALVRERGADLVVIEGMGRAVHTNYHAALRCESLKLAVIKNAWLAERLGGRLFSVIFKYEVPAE
UniProt Q9NR28: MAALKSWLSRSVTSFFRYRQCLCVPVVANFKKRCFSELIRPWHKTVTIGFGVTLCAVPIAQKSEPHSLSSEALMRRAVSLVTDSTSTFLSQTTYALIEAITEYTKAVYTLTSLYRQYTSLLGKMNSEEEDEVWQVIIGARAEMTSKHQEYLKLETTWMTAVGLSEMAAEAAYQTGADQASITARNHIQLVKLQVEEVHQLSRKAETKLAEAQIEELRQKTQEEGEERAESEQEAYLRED
UniProt Q9NY27: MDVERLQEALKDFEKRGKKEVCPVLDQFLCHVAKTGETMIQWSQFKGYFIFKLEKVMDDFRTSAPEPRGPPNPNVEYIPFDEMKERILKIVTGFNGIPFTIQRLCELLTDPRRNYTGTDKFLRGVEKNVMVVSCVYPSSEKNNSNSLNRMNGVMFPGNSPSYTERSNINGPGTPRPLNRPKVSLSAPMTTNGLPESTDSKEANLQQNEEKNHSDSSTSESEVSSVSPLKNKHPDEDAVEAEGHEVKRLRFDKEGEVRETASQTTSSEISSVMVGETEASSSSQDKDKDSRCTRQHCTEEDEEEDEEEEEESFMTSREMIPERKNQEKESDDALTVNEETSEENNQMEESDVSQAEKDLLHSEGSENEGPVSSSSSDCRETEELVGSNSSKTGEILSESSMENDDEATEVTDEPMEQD
UniProt Q9P013: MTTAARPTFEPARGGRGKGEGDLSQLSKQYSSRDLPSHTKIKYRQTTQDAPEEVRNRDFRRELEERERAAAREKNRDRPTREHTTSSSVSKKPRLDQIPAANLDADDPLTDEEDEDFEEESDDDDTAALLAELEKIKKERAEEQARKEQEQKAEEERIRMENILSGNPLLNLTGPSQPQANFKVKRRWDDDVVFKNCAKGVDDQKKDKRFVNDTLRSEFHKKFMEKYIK
UniProt Q9NUB1: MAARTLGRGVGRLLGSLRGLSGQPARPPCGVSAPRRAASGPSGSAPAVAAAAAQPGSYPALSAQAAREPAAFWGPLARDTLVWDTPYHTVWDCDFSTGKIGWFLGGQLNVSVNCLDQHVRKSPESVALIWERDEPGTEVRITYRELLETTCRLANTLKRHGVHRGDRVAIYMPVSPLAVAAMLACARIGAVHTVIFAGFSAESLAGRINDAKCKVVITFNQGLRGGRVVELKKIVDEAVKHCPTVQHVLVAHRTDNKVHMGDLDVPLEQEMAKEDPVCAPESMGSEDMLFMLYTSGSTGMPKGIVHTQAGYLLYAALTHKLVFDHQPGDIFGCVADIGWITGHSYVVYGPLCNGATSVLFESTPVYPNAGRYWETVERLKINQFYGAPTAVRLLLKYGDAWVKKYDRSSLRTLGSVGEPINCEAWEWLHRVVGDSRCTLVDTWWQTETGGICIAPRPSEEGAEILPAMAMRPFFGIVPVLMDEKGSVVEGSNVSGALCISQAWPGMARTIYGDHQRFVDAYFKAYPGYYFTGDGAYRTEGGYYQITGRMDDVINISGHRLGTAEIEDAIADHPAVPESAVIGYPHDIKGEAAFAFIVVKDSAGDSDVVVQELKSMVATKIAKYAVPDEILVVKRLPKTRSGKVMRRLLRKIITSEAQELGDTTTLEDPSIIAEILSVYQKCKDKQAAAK
UniProt Q9NYP9: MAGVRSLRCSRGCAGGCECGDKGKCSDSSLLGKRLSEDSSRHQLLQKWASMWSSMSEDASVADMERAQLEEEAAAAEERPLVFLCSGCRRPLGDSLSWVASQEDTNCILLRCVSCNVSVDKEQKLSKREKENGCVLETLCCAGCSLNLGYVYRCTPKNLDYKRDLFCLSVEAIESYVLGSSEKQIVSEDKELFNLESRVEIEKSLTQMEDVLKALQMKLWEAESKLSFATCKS
UniProt Q9NWR8: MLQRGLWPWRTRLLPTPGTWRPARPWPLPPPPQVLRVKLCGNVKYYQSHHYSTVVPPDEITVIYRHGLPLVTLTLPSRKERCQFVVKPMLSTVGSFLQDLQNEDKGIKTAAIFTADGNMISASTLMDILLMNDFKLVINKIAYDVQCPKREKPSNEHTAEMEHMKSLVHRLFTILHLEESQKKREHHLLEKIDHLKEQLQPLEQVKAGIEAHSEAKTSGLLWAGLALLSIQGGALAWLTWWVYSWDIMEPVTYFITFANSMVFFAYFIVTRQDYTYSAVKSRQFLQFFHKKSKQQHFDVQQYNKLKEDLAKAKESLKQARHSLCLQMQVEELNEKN
UniProt Q9NZW5: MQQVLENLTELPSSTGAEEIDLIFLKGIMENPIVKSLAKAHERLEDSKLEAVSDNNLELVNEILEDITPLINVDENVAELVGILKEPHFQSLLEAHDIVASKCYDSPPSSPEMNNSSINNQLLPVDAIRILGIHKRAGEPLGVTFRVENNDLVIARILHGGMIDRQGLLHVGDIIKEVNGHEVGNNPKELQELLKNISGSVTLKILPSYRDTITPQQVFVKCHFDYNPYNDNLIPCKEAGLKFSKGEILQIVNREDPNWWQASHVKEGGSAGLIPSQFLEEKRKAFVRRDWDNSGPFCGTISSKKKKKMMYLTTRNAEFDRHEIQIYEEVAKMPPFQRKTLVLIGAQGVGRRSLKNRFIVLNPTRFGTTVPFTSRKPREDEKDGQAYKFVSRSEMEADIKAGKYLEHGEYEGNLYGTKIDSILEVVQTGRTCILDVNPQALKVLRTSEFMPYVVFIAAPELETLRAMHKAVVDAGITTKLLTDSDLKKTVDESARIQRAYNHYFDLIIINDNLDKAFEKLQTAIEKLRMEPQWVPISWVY
UniProt Q9NTZ6: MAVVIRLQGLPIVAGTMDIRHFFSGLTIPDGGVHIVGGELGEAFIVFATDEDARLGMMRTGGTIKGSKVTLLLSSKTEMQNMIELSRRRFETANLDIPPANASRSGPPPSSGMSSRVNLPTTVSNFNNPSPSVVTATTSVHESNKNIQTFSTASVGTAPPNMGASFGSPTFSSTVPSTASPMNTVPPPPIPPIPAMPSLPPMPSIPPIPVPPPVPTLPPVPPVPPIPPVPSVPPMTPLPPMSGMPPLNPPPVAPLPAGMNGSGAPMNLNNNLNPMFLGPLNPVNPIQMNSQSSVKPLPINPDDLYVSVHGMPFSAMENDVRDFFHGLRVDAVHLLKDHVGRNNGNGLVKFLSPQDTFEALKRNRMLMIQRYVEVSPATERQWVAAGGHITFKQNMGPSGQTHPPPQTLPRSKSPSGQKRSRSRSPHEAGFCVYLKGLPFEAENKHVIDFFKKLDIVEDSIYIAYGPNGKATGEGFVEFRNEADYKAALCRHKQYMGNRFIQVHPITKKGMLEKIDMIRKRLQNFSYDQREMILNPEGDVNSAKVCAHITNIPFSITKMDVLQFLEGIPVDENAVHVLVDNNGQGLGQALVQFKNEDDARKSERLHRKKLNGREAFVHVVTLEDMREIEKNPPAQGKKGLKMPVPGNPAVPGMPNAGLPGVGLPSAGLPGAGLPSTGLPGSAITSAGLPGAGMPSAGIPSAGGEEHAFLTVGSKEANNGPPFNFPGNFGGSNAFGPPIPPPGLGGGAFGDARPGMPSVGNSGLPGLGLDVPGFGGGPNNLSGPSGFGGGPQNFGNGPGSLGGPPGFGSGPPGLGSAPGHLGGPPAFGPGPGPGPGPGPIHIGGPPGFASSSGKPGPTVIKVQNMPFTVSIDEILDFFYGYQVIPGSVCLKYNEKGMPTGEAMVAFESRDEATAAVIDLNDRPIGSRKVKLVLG
UniProt Q9NZ63: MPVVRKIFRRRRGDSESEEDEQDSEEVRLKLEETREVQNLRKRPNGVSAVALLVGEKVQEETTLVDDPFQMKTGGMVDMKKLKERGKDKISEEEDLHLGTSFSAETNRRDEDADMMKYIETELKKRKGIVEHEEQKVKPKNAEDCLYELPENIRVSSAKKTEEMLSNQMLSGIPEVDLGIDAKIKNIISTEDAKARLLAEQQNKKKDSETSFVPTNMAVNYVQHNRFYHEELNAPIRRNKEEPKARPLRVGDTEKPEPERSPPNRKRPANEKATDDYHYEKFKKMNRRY
UniProt Q9NYR9: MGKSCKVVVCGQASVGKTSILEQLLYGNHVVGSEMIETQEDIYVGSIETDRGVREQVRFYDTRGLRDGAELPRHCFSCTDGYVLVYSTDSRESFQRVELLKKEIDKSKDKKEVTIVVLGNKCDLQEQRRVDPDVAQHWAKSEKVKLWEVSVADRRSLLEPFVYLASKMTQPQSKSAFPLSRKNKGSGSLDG

± gives the standard deviation of the averaged measurements. Only a part is listed here, and it is no random draw. Most entries show no effect beyond the scatter of the controls.

Compound in one test: Nc1ncnc2c1ncn2[C@@H]1O[C@H](COP(=O)(O)OP(=O)(O)OP(=O)(O)O)[C@@H](O)[C@H]1O [adenosine triphosphate]
Briefly: NP40-soluble protein abundance relative to vehicle (solubility fold change) (ratio); higher = more soluble protein in presence of ATP. The settings on record: concentration: 0.1mM. The procedure, abridged: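 Values are fold changes against the detergent-processed vehicle, based on vsn-normalised intensities. Jurkat crude lysate was treated at eight concentrations from 0.1 to 10 mM (10 min at room temperature, then 3 min at 37 °C), solubilised with 0.8% NP40 and benzonase, ultracentrifuged and analysed by TMT-labelled LC-MS/MS over three independent experiments.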
Regarding GIMAP4 (UniProt Q9NUV9), the NP40-soluble protein abundance was found to be 1.04 ± 0.051.
Take DCP1A (UniProt Q9NPI6): the NP40-soluble protein abundance amounted to 0.9902 ± 0.0042.
For the target SNX15 (UniProt Q9NRS6), the NP40-soluble protein abundance worked out at 0.991 ± 0.029.
For UniProt Q9NSY1, the NP40-soluble protein abundance turned out to be 1.04 ± 0.051.
Regarding HIF1AN (UniProt Q9NWT6), the NP40-soluble protein abundance is 1.01 ± 0.04.
Regarding UniProt Q9P1F3, the NP40-soluble protein abundance turned out to be 0.886 ± 0.11.
As to OXSM (UniProt Q9NWU1), the NP40-soluble protein abundance amounted to 1.05 ± 0.12.
Take UBP1 (UniProt Q9NZI7): the NP40-soluble protein abundance came to 0.962 ± 0.021.
Regarding UniProt Q9NVS9 and related entries, the NP40-soluble protein abundance came to 0.989 ± 0.011.
As to PANK4 (UniProt Q9NVE7), the NP40-soluble protein abundance amounted to 1.04 ± 0.082.
Take PAG1 (UniProt Q9NWQ8): the NP40-soluble protein abundance is 0.945 ± 0.053.
Take UniProt Q9NR28 and related entries: the NP40-soluble protein abundance is 0.901 ± 0.059.
Still for that read-out and setting: the same measure for PPP4R2 (UniProt Q9NY27): 0.959 ± 0.051.
Take UniProt Q9NWU2: the NP40-soluble protein abundance was 0.883 ± 0.12.
For the target UniProt Q9NRP2, the NP40-soluble protein abundance worked out at 0.941 ± 0.22.
ANLN (UniProt Q9NQW6): the NP40-soluble protein abundance was found to be 1.01 ± 0.013.
On the same count and under the same terms, the same measure for CWC15 (UniProt Q9P013): 0.929 ± 0.076; for UniProt Q9NUB1 and related entries: 1.03 ± 0.083; for UniProt Q9NYP9: 1.02 ± 0.028.
Regarding UniProt Q9NWR8, the NP40-soluble protein abundance is 1.09 ± 0.065.
Take UniProt Q9NVA1 and related entries: the NP40-soluble protein abundance came out at 0.997 ± 0.063.
For the target C12orf4 (UniProt Q9NQ89), the NP40-soluble protein abundance is 1.07 ± 0.11.
Regarding UniProt Q9NW75 and related entries, the NP40-soluble protein abundance is 1.06 ± 0.02.
In the case of MPP6 (UniProt Q9NZW5), the NP40-soluble protein abundance is 1.04 ± 0.073.
As to UniProt Q9P1Z2 and related entries, the NP40-soluble protein abundance worked out at 1.02 ± 0.08.
In the case of POGK (UniProt Q9P215), the NP40-soluble protein abundance is 0.993 ± 0.063.
On to NIT2 (UniProt Q9NQR4), for which the NP40-soluble protein abundance is 1.02 ± 0.066.
As to KIF15 (UniProt Q9NS87), the NP40-soluble protein abundance amounted to 1.02 ± 0.044.
On the same count and under the same terms, the same measure for RBM12 (UniProt Q9NTZ6): 1.01 ± 0.021; for C9orf78 (UniProt Q9NZ63): 0.948 ± 0.013.
In the case of UniProt Q9NYR9 and related entries, the NP40-soluble protein abundance came to 1.02 ± 0.018.
Same read-out and setting: to SACM1L (UniProt Q9NTJ5) belongs 1.02 ± 0.061; to UniProt Q9NPF2 and related entries, 0.899 ± 0.056.
Regarding NUDT4 (UniProt Q9NZJ9), the NP40-soluble protein abundance was 1.06 ± 0.16.
For the target UniProt Q9NSG2 and related entries, the NP40-soluble protein abundance is 1.01 ± 0.069.
Take UniProt Q9P0K8 and related entries: the NP40-soluble protein abundance was determined as 0.942 ± 0.14.
MED17 (UniProt Q9NVC6): the NP40-soluble protein abundance came to 1.01 ± 0.047.
Regarding UniProt Q9NPG3 and related entries, the NP40-soluble protein abundance was 1.03 ± 0.1.

The test is the same for the next values; noted with them: concentration: 0.5mM.
Turning to GIMAP4 (UniProt Q9NUV9), the NP40-soluble protein abundance was found to be 1.05 ± 0.069.
As to DCP1A (UniProt Q9NPI6), the NP40-soluble protein abundance was 1 ± 0.022.
Same read-out and setting: the same measure for SNX15 (UniProt Q9NRS6): 0.946 ± 0.034.
In the case of UniProt Q9NSY1, the NP40-soluble protein abundance came to 1.139 ± 0.0098.
Same read-out and setting: the same measure for HIF1AN (UniProt Q9NWT6): 1.04 ± 0.055; for UniProt Q9P1F3: 0.913 ± 0.053.
The same measure, in the same setting: the same measure for OXSM (UniProt Q9NWU1): 1.1 ± 0.14; for UBP1 (UniProt Q9NZI7): 0.996 ± 0.016.
Still for that read-out and setting: the same measure for UniProt Q9NVS9 and related entries: 0.989 ± 0.017; for PANK4 (UniProt Q9NVE7): 1.04 ± 0.12; for PAG1 (UniProt Q9NWQ8): 0.919 ± 0.082.
In the case of UniProt Q9NR28 and related entries, the NP40-soluble protein abundance is 0.89 ± 0.059.
With PPP4R2 (UniProt Q9NY27), the NP40-soluble protein abundance worked out at 0.963 ± 0.055.
For the target UniProt Q9NWU2, the NP40-soluble protein abundance is 0.843 ± 0.19.
In the case of UniProt Q9NRP2, the NP40-soluble protein abundance was determined as 0.951 ± 0.35.
With ANLN (UniProt Q9NQW6), the NP40-soluble protein abundance stood at 0.998 ± 0.019.
Turning to CWC15 (UniProt Q9P013), the NP40-soluble protein abundance is 0.901 ± 0.091.
Regarding UniProt Q9NUB1 and related entries, the NP40-soluble protein abundance was found to be 1.05 ± 0.048.
For UniProt Q9NYP9, the NP40-soluble protein abundance is 1.01 ± 0.046.
Still for that read-out and setting: to UniProt Q9NWR8 belongs 1.1 ± 0.06; to UniProt Q9NVA1 and related entries, 1.06 ± 0.12.
On to C12orf4 (UniProt Q9NQ89), for which the NP40-soluble protein abundance is 1.15 ± 0.15.
Still for that read-out and setting: to UniProt Q9NW75 and related entries belongs 1.16 ± 0.2; to MPP6 (UniProt Q9NZW5), 1.03 ± 0.039.
As for UniProt Q9P1Z2 and related entries, the NP40-soluble protein abundance is 0.993 ± 0.037.
On to POGK (UniProt Q9P215), for which the NP40-soluble protein abundance worked out at 1.02 ± 0.037.
The same measure, in the same setting: to NIT2 (UniProt Q9NQR4) belongs 1.04 ± 0.071.
On the same count and under the same terms, to KIF15 (UniProt Q9NS87) belongs 1.04 ± 0.083; to RBM12 (UniProt Q9NTZ6), 0.985 ± 0.047; to C9orf78 (UniProt Q9NZ63), 0.9418 ± 0.0024.
UniProt Q9NYR9 and related entries: the NP40-soluble protein abundance came out at 1.08 ± 0.059.
With SACM1L (UniProt Q9NTJ5), the NP40-soluble protein abundance was 1.04 ± 0.043.
Take UniProt Q9NPF2 and related entries: the NP40-soluble protein abundance came out at 0.951 ± 0.034.
Consider NUDT4 (UniProt Q9NZJ9), for which the NP40-soluble protein abundance was determined as 0.972 ± 0.1.
On the same count and under the same terms, the same measure for UniProt Q9NSG2 and related entries: 1.04 ± 0.02.
In the case of UniProt Q9P0K8 and related entries, the NP40-soluble protein abundance amounted to 0.934 ± 0.041.
Take MED17 (UniProt Q9NVC6): the NP40-soluble protein abundance worked out at 1.02 ± 0.028.
In the case of UniProt Q9NPG3 and related entries, the NP40-soluble protein abundance was 1.06 ± 0.07.
